Measured data: PubChem BioAssay AID1259254 (NCATS, 2017)
This is one part, drawn at random, of about 59,000 deposited reagents. About 1,550 of them (2.6%) count as active. 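G2 share is only a proxy for re-replication; each gene was hit by three separate siRNAs, and active genes were retested.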 Entries without a mark were called inactive. The numbers tell different reagents against one gene apart. Further read-outs or replicates are left out here. Not stated in the record: the amount of reagent.

- Test: 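Finding genes that stop cells copying their DNA twice in one cycle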 (primary screen)
- System: human HCT116 colorectal cancer cells
- Reagents: single siRNA against human genes
- Time to read-out: 3 days
- Read-out: 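Imaged Hoechst DNA stain sorts each cell into a cycle phase by DNA amount; per plate, G2 fraction set to 0% for non-targeting and 100% for GMNN siRNA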
- Direction: G2 robust z-score: higher = more G2 cells, more excess DNA replication
- Active means: 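An siRNA counts as active if its G2 robust z-score lies at least 5 MADs above the screen median; here such calls match roughly 38% of GMNN control or more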

SRF (serum response factor) #1 gave G2 robust z-score -1.23.
SRF (serum response factor) #2 showed G2 robust z-score 0.259.
Against SRF (serum response factor) #3, the values are G2 robust z-score 1.58.
Knock-down of ACSBG2 (acyl-CoA synthetase bubblegum family member 2) #1 gave: G2 robust z-score -1.41.
Silencing of ACSBG2 (acyl-CoA synthetase bubblegum family member 2) #2 came out at: G2 robust z-score -0.187.
For ACSBG2 (acyl-CoA synthetase bubblegum family member 2) #3 the deposit lists G2 robust z-score 1.74.
GLIS1 (GLIS family zinc finger 1) #1 showed G2 robust z-score 1.17.
Against GLIS1 (GLIS family zinc finger 1) #2 the deposit lists G2 robust z-score -0.388.
After knock-down of GLIS1 (GLIS family zinc finger 1) #3 the results were G2 robust z-score 0.853.
Depletion of COQ3 (coenzyme Q3, methyltransferase) #1 came out at: G2 robust z-score 0.446.
After knock-down of COQ3 (coenzyme Q3, methyltransferase) #2 the results were G2 robust z-score -0.159.
After knock-down of COQ3 (coenzyme Q3, methyltransferase) #3, the screen gave G2 robust z-score -0.833.

Taken from above.
For “G2 robust z-score”, ACSBG2 (acyl-CoA synthetase bubblegum family member 2) #1 shows -1.41
Result of SRF (serum response factor) #1 in “G2 robust z-score”: -1.23
SRF (serum response factor) #3, G2 robust z-score = 1.58
Result of ACSBG2 (acyl-CoA synthetase bubblegum family member 2) #3 in “G2 robust z-score”: 1.74

Continued.
With knock-down of AKR7L (aldo-keto reductase family 7 like (gene/pseudogene)) #1, the record shows G2 robust z-score -0.283.
Depletion of AKR7L (aldo-keto reductase family 7 like (gene/pseudogene)) #2 resulted in: G2 robust z-score -0.914.
Silencing of AKR7L (aldo-keto reductase family 7 like (gene/pseudogene)) #3 came out at: G2 robust z-score 0.137.
ZNF248 (zinc finger protein 248) #1 gave G2 robust z-score 2.57.
Knock-down of ZNF248 (zinc finger protein 248) #2 gave: G2 robust z-score 1.19.
With knock-down of ZNF248 (zinc finger protein 248) #3, the screen gave G2 robust z-score 0.0296.
PIMREG (PICALM interacting mitotic regulator) #1 gave G2 robust z-score -1.01.
After knock-down of PIMREG (PICALM interacting mitotic regulator) #2 the results were G2 robust z-score -0.0937.
For PIMREG (PICALM interacting mitotic regulator) #3, the values are G2 robust z-score -1.11.
With knock-down of GHRL (ghrelin and obestatin prepropeptide) #1, the screen gave G2 robust z-score -0.367.
GHRL (ghrelin and obestatin prepropeptide) #2 showed G2 robust z-score -0.788.
With knock-down of GHRL (ghrelin and obestatin prepropeptide) #3 the results were G2 robust z-score -0.256.
APOBEC3H (apolipoprotein B mRNA editing enzyme catalytic subunit 3H) #1 scored G2 robust z-score 3.18.
Against APOBEC3H (apolipoprotein B mRNA editing enzyme catalytic subunit 3H) #2 the deposit lists G2 robust z-score 4.17.
Against APOBEC3H (apolipoprotein B mRNA editing enzyme catalytic subunit 3H) #3, the values are G2 robust z-score 2.69.
For DLX1 (distal-less homeobox 1) #1, the values are G2 robust z-score 0.165.
After knock-down of DLX1 (distal-less homeobox 1) #2, the record shows G2 robust z-score 0.113.
DLX1 (distal-less homeobox 1) #3 gave G2 robust z-score -0.399.
